The supplement of paper PMC5949888
Most values lie at the floor of the assay. Slopes are relative: functional sequences can read slightly below zero.

System: Saccharomyces cerevisiae PS128 hsf1 delta, HSF1(1-493) fusion
Assay: growth estimate (transactivation domain function in HSF1 fusion, heat-shock survival) (a.u. (slope of normalised read count over time)); higher = stronger growth at 37°C, i.e. more transactivation activity
Conditions: library: random library

Substance | growth estimate
SSPIA | < -0.25
LRWKWQQCPETDLIMYTSRH | < -0.25
SGVLEGVAQKVYSRAMLNVV | < -0.25
VDDVRIV | < -0.25
ISSHWLEKLGQLWP | < -0.25
ERD | < -0.25
LLQEAGAFTLCPVSGGPTNQ | < -0.25
NSGLPGTNLVNHKVG | < -0.25
STPAEANCPEKSCGRARSTS | -0.246
NTARREGLRCRQSGCYLPFH | < -0.25
QSRFSYRN | < -0.25
FSRIK | < -0.25
LMFDSRPTN | < -0.25
DDLISGFSRRLRPAYCDGPS | < -0.25
GAFVASATRDFVVRLSRKHE | < -0.25
ECRGLKSHVVSVYVRVTWIS | < -0.25
VWGN | < -0.25
VQRYSRGGIHHLCPFYFKVM | < -0.25
ALYVTRVSCRRVLHATIY | < -0.25
ENRIGEAATSRNFFMRLQAI | < -0.25
ELVRYVWRPLGAVVNGLLIR | < -0.25
GPVSLENWVRRCDAIS | < -0.25
GDLFRLRIPLL | < -0.25

Substance | growth estimate
IRFAKDHRRGRGCAVTNGNG | < -0.25
IGASSFYLHVEGDGYPRHKR | < -0.25
LCSWTGGNISDLSGGELSFS | -0.227
YSSQSLRWNIVTVLDVEIHS | < -0.25
ARGDIGDPRVGRGCRVA | < -0.25
TLHTG | < -0.25
GFPQLGTFGRAPEVVSPRRD | < -0.25
GIAHLANQPLTPQQRARCAY | < -0.25
LSTGTGKVFLIYLHLLC | < -0.25
TQLLYYDLWIFVL | < -0.25
CSVYHAQLPLCLRGGIV | < -0.25
IQPCAGVMVPQCFVMYSLGR | < -0.25
QHIRQFTPIQYVTCGFLQLK | < -0.25
AREGKAF | < -0.25
LNGLSA | < -0.25
HFV | < -0.25
AELRDPS | < -0.25
GQSTARKWKGARISIDTYEL | < -0.25
GVLATLGCSLYYYERAHAMR | < -0.25
SLSSMSFGEGEFRP | < -0.25
RVLESC | < -0.25
IKGAVRLSGLVTSPPDHTRS | < -0.25
RTRDELRRPKRPGSRGLAGL | < -0.25

Substance | growth estimate
WRSTFNDTHLWIFCVRLAWP | < -0.25
FPFDEIRRQMFS | < -0.25
SLAINHDRAPQET | < -0.25
SRRYPRPLMAAVPCGNNITG | < -0.25
EVVMSVPL | < -0.25
RYCVITID | < -0.25
RPDNKG | < -0.25
YCTGDRGSCPRLAAHRVVPL | < -0.25
EATGRDNPALARSPKMRIRQ | < -0.25
DSVKLADTMN | < -0.25
VLRLRLNDPN | -0.0184
ATSYIGGFCDGLILAPRGWH | < -0.25
IMHEGDIVRTRWRVYTRDNC | < -0.25
VYTSVSLNLIVLRHVERTK | < -0.25
GEYHPNTYNSLREGFTHNIW | < -0.25
HDGTAVPYLRGAPPAVMYTA | < -0.25
LRRS | < -0.25
IQFDPWHGYGIRRDETVSPV | < -0.25
YVLGK | < -0.25
SFSH | -0.132
FLYWSDRGLVGSRQLWQYNS | -0.241
MTLRILRSLRGLRCTGIIIH | < -0.25
RPVSLESTTGPRRLE | < -0.25

Substance | growth estimate
SEWSIESAVLRPRRARWTGN | -0.243
SDTPNSWLTTTWQTQAAARI | < -0.25
FYNQTSSLSHRSCQGVVTRR | < -0.25
AWTSISS | < -0.25
SEKSVRLNLPHRQESLIRLA | < -0.25
FDRGSGGCIRYLLCRVGTA | < -0.25
NDPREVDWLYMRRIKTDNSR | < -0.25
RSVIISSPGEGRESAYFPRI | < -0.25
ISLLKRPSDGPQRYGGIAKR | < -0.25
LKGQ | < -0.25
QKSTAASVSRHITSKIRVES | < -0.25
VIVQPIMALNNGVAVHRAIS | < -0.25
CRWSITFETVQLVTGPGFVE | < -0.25
GGSAKSQH | < -0.25
QYMMLSWFGPIRGRYGVTCI | < -0.25
DPPF | < -0.25
TRGCFRSDGQRQAGGGTLRV | < -0.25
LYSNVTKCGMHWAEKYWVKG | < -0.25
GFVRICMSIQHLGTD | -0.246
YDVGKWPLRERYTVGGGPPI | < -0.25
TIARVRHEYRTLRFGGGPPR | < -0.25
CRPGSSILGQFKA | -0.243
PSVASFNL | < -0.25

Substance | growth estimate
MGRLTPPGHLSSGL | < -0.25
VREGYMPGKQA | < -0.25
LNIPITD | < -0.25
AIRQAKLWFPTATNATCLSA | < -0.25
GDRTKGSGLCCRNLAGHWPQ | < -0.25
FFRELKGRRRSWEGRTCLRR | < -0.25
KGPLESVKCRWSFKIPLSVA | < -0.25
WTAQFGEFEI | < -0.25
FLRAYAGL | < -0.25
GVYRWRDHRAYTRLVFQ | < -0.25
KETQVWADLIGINCTRLHGS | < -0.25
HAPGDRVAPIC | < -0.25
RYCRQGFCTRV | < -0.25
GLRCGLGFESQNPQSKNQPG | < -0.25
DVVNESSPREISSYRARRIT | < -0.25
TRQTRVRRRGTVLGLSSTAD | < -0.25
SGNYANIS | < -0.25
FQS | < -0.25
HYRHESDRNAGNPLQGATRY | < -0.25
RGCL | -0.246
GTDESGGKV | < -0.25
RMRFCNRYTGFQAGGPPILP | < -0.25
LEREEQSMCSDTSL | < -0.25

Substance | growth estimate
NTYWQLYSI | < -0.25
QCGSGDVRQTVDKPILRK | < -0.25
SVVCNREMNGRSMDGFAKAR | < -0.25
RTC | < -0.25
RLRHFQSINVG | -0.205
AATLVLANFYSTMSR | < -0.25
RASRPLLCDTFGQANTSRPE | < -0.25
GPGCDL | < -0.25
AYP | < -0.25
PDDL | < -0.25
GIRLFS | < -0.25
SQAQRQKCNHTVSFHLWGGA | < -0.25
PLLQG | -0.0363
LPCCAGE | < -0.25
GHVRMILITARKDTICSHPT | < -0.25
RACSMLGVHRGDF | < -0.25
VGTIYTTRCASLDLTRG | < -0.25
AYRVGHIRARAAVKIL | < -0.25
AAHLGGNSRSPVWT | < -0.25
WYRVAQQTFGLNLFLVKLSQ | < -0.25
DGSGAKRD | < -0.25
GNANLGPFQFIKLFAAKRAN | < -0.25
VVRIIGA | < -0.25

Substance | growth estimate
VHPPDLRATVWAAFGVYDDC | < -0.25
WNVICSGVGFFERTSGSPVK | < -0.25
RGSGQNLMSLAYPIG | < -0.25
SSHVGVRPVGFGQGRWDTPH | < -0.25
FASNTQVSGREREVSRACRL | < -0.25
SVISRRLVVQ | < -0.25
TLQGVGCGAGPVREAFAWRK | < -0.25
LVARDYVHSFKTDCGLGNRS | < -0.25
HSSAQGEIYLGEVCNGGGPC | < -0.25
ASKVRAGHFPVYELLFGIVS | < -0.25
GCG | < -0.25
WDAHAANRIRLWGSGLAVER | < -0.25
ARQVT | < -0.25
IALV | < -0.25
MSLHGHLPPPVGDIRTPLTL | < -0.25
SCLTVGQEGIGTSSEANEAG | < -0.25
VSWPVHGVSGR | < -0.25
WKVALRHISLARGDLVGRPA | < -0.25
DCAVGLA | -0.243

4 neighbouring entries from above, quoted:
Substance | growth estimate
GPVSLENWVRRCDAIS | < -0.25
GDLFRLRIPLL | < -0.25
IRFAKDHRRGRGCAVTNGNG | < -0.25
IGASSFYLHVEGDGYPRHKR | < -0.25

Fetched one by one from the list above, 6 records:
Substance | growth estimate
EVVMSVPL | < -0.25
LCSWTGGNISDLSGGELSFS | -0.227
RPDNKG | < -0.25
IMHEGDIVRTRWRVYTRDNC | < -0.25
WKVALRHISLARGDLVGRPA | < -0.25
PSVASFNL | < -0.25
